# Screening data, single-dose tests

Sequences of proteins named here, by UniProt entry; tags and fusion partners are left off. Residues count along the entry.
UniProt A4I591, 1-473: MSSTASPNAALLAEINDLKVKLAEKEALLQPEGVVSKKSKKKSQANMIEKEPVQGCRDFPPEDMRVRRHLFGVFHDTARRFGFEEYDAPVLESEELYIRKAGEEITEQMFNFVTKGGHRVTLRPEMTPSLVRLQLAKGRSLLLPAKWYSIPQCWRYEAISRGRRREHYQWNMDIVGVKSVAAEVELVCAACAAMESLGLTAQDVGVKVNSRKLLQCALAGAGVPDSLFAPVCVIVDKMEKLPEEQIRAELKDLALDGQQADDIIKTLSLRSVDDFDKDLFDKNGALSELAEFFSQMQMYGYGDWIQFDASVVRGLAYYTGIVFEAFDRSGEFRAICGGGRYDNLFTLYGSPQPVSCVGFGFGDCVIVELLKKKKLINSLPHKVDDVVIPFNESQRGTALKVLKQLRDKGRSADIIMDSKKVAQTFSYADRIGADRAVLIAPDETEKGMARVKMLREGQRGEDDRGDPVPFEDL

Results are given as percent effect. How 0% and 100% were set is not recorded. Most values in the screen are low, and negative values occur. The compounds are a random part of those screened.

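Enzyme assay of histidyl-tRNA synthetase; the read-out is not stated. Target: Histidine-tRNA ligase, Leishmania infantum (UniProt A4I591). Compounds at 30 µM. Higher reads as stronger inhibition (inferred: compounds with an IC50 in retests scored well above the rest). The assay is labelled LdHisRS but filed under L. infantum. Of about 69,000 compounds tested this way, about 410 (0.6%) reached 50% or more in at least one test.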

| compound | Percent Effect |
|---|---|
| `CN(C)c1ncc(CNS(=O)(=O)c2cc(F)ccc2Cl)n1C` | 13.39 |
| `Cc1ccc(-c2c[nH]c([C@@H]3COCCN3Cc3ncc[nH]3)n2)cc1` | 24.32 |
| `O=C(NC1CCCCC1)N1CCc2onc(COc3cccnc3)c2C1` | 26 |
| `COCC(=O)N1CCCC2(CCN(CCN3CCCC3)CC2)C1` | 18 |
| `CN1CC(C(=O)NC(C)(C)C)CC1=O` (stereo not given) | 3.81 |
| `CC(C)(C)CN[C@@H]1CO[C@H](CNC(=O)Nc2ccccc2)[C@H]1O` | 22.97 |
| `Cc1nn(C)c(N(C)C)c1CNCCOc1ccc2c(c1)OCO2` | 3.67 |
| `Cc1cc(NC(=O)CN2CCCC2c2noc(C)n2)n(C(C)(C)C)n1` (stereo not given) | -1.724 |
| `O=C(c1cccc(F)c1)N1CCOC(c2nc(-c3ncccn3)no2)C1` (stereo not given) | 6.569 |
| `COc1ccc(CN(C)[C@@H]2CN(C(=O)c3cncs3)C[C@H]2O)cc1` | 3.125 |
| `Cc1ccc(NC(=O)C(C)N2CCCN(c3nccs3)CC2)c(C)c1` (stereo not given) | -2.128 |
| `O=C(COC1CCCC1)NCc1ccc(O)c(F)c1` | 10.36 |
| `Cc1ccccc1OCCCC(=O)NCC1CN(C)CCO1` (stereo not given) | 13.89 |
| `CN1N=C(C(=O)N2CCCCC2)S(=O)(=O)c2ccccc21` | 8.475 |
| `CC(C)n1nc2c(cc1=O)CN(c1ncnc3ccsc13)CC2` | 11.71 |
| `Cc1cnn(CC2CCCCN2Cc2nc(C)c3ccccc3n2)c1` (stereo not given) | 25 |
| `c1cnc(N2CC[C@@H](N3CCOCC3)[C@@H]2Cc2ccncc2)nc1` | 5.882 |
| `O=C(Nc1cnccn1)[C@@H]1CCO[C@@H]2CCN(Cc3ccsc3)C[C@@H]21` | 18 |
| `N#Cc1cnn(C(=O)CCCOc2ccccc2Cl)c1N` | -3.947 |
| `O=C(c1cccnc1-n1cncn1)N1CCN(CC2CC2)CC1` | 17.31 |
| `CCCNC(=O)CC1OCCc2ccsc21` (stereo not given) | 13.16 |
| `Cc1cccc(C(=O)N2CCSCC2)c1NC(=O)c1cccnc1` | 10 |
| `O=C(c1cccc(-n2cccn2)c1)N1CCOC(CCO)C1` (stereo not given) | 2.564 |
| `CCC(C(=O)NCc1csc(-c2ncccn2)n1)n1cccn1` (stereo not given) | 25.71 |
| `O=C(CN1CCCC(c2noc(C3CC3)n2)C1)N1CCCC1` (stereo not given) | 5.882 |
| `N#CCCNC(=O)CSc1cc(F)ccc1F` | 13.89 |
| `CCCc1nc2c(c(C)c(C)n2Cc2ccncc2)c(N)c1CC` | 14.29 |
| `CNC(=O)CS(=O)(=O)Cc1cc(Cl)c2c(c1)OCCCO2` | 12.36 |
| `O=C(C1CC1)N1CCN(c2ccc(-n3cncn3)nn2)CC1` | 3.478 |
| `Cc1ccc(-n2nnc(C(=O)NCCS(N)(=O)=O)c2C2CC2)cc1` | 11.61 |
| `Cc1nc(CN2CCN(C(=O)NC(C)Cn3ccnc3)CC2)cs1` (stereo not given) | 12.5 |
| `Cc1cccc(NCc2nn(C)c(=O)[nH]2)c1` | 8.065 |
| `O=c1ccc(-c2cccs2)nn1CN1CCN(C2CCS(=O)(=O)C2)CC1` (stereo not given) | 18.42 |
| `CCS(=O)(=O)N1CCOC2(CCCN(c3cccc(C#N)c3)C2)C1` (stereo not given) | 11.43 |
| `CCN1C(=O)C2(CCOCC2)c2cc(NC(=O)c3csnn3)ccc21` | 23.29 |
| `Fc1ccccc1OCCc1cc(C2CNCCO2)n[nH]1` (stereo not given) | -3.158 |
| `CC(C)c1cc2c(s1)NC(c1ccccc1)NC2=O` (stereo not given) | 9.524 |
| `CC(C)c1nc(CN(C)C(=O)CCS(=O)(=O)c2ccccc2)no1` | 28.57 |
| `Cn1ccc(CNC(=O)N2CCC(C3(C)OCCO3)CC2)c1` | 15 |
| `Cc1nc[nH]c1-c1nccn1-c1ccc(C(N)=O)c(N2CCCC2)c1` | 20.63 |
| `O=C(NCC1COC2(CCOCC2)O1)c1csc(-c2cccc(Cl)c2)n1` (stereo not given) | 15.65 |
| `O=C1CCN(C(=O)NCC(c2ccccc2)c2ccccc2)CCN1` | 9.375 |
| `Cc1ncc(CN2CCCC(c3cc(C(N)=O)[nH]n3)C2)s1` (stereo not given) | 8.929 |
| `c1ccc(-c2nc(CN3CCOC(Cn4cncn4)C3)cs2)cc1` (stereo not given) | 11.61 |
| `COCCNC1(c2ccc(Cl)cc2)CCOCC1` | 16.44 |
| `CCc1nc2c(c(C)c(C)n2Cc2cccnc2)c(N)c1C` | -5.495 |
| `COCCN1CCCC1c1cccc2c1OCCO2` (stereo not given) | -2.679 |
| `COc1cccc2c1OCC(CNC(=O)CCn1cnnn1)C2` (stereo not given) | 17.11 |
| `Cc1cc(C(=O)N2CCC(c3nccn3Cc3ccccn3)CC2)no1` | 13.6 |
| `CN(C)c1ncc2c(O)nc(C3CCNCC3)cc2n1` | 12.86 |
| `CCc1nc(CCNC(=O)Nc2ccc(C(=O)NC)cc2)cs1` | 8.036 |
| `CC[C@H](C)[C@H](NC(=O)c1ccccc1-n1cnnn1)C(=O)OC` | -3.883 |
| `COc1ccc2c(C)nc(N3C[C@@H](C)O[C@@H](C)C3)nc2c1` | 31.18 |
| `Cc1nccc(CN2CC[C@H](Oc3cccc(F)c3)[C@@](C)(O)C2)n1` | 11.43 |
| `CC(C)Cc1noc(CN2CCN(C(=O)c3ccco3)CC2)n1` | 3.81 |
| `Cc1ccc(Oc2ncccc2C(=O)N(C)CCCN(C)C)cc1` | 7.921 |
| `CCc1cnc(N2CCc3cc(C(=O)NC)c(N(C)C)nc3CC2)nc1` | 13.86 |
| `CCC(C)(C)NC(=O)Cn1nc(C)nc1-c1cccc(C)c1` | 16.44 |
| `CC(C)(CNC(=O)C1CCCN1S(C)(=O)=O)N1CCOCC1` (stereo not given) | 4.167 |
| `C[S+]([O-])CCCNCc1cc(F)ccc1Br` (stereo not given) | 17.24 |
| `CN1CCCN(c2nccc(-c3c[nH]nc3C3CCCCC3)n2)CC1` | 17.57 |
| `CCC(C)(COc1ncccc1Cl)NCC(=O)NCC(C)C` (stereo not given) | 1.205 |
| `CC(=O)N1CCCn2nc(CNS(=O)(=O)N(C)C(C)C)cc2C1` | 25.97 |
| `O=C(NCCc1ccn(-c2ccc(F)cc2)n1)C1CCCOC1` (stereo not given) | 6.452 |
| `CCC(=O)N1CCC(Cc2cnc(Nc3cnccn3)cn2)CC1` | 11.27 |
| `Cc1ccc(O)c(CN2CCc3nc(-c4cccnc4)nc(O)c3C2)c1` | 3.125 |
| `CS(=O)(=O)Cc1ccc(CNC(=O)c2cccnc2O)cc1` | 16.22 |
| `Cc1cc(C(=O)N(C)Cc2cccs2)nc(N2CCOCC2)n1` | 6.897 |
| `N#Cc1cccc(C(=O)N2CCc3c(COCC4CC4)cncc3C2)c1` | 7.018 |
| `CCN(C)S(=O)(=O)N(CC)Cc1cccc(-c2ccncc2)c1` | 13.7 |
| `CN(Cc1cc(Br)cn1C)C(=O)c1cc(Cl)ccn1` | 3.175 |
| `Cc1nc(NCCSc2ccccn2)c2c(C)noc2n1` | 11.11 |
| `C[C@H]1C[C@@H]2CCN(Cc3ccccn3)C[C@H]2O1` | 4.511 |
| `CCCC1(CO)CCCN(Cc2nccs2)C1` (stereo not given) | 5.833 |
| `CC(C)N1CCN(C)C2(CCN(C(=O)c3ccnnc3)CC2)C1=O` | 5.263 |
| `COc1ccc(OC)c(-c2nc(CN(C)Cc3nonc3C)c(C)o2)c1` | 8.434 |
| `COc1ccc(-c2n[nH]cc2CN2CCSCC2)c(OC)c1` | 7.937 |
| `CCCc1nc(CN2CCCCC2Cn2cncn2)cs1` (stereo not given) | 8.696 |
| `c1cnn(-c2ccc(CN3CCOC(Cn4cncn4)C3)cc2)c1` (stereo not given) | 16.85 |
| `COc1cc(CNC(C)c2ccc(F)c(F)c2)cc2c1OCCO2` (stereo not given) | 18.18 |
| `NCCC(Cc1ccccc1)c1ccco1` (stereo not given) | 10.42 |
| `Cn1cccc1C(=O)N1CCN(Cc2ccncc2)c2ncccc2C1` | 15.09 |

The first 7 entries again:

| compound | Percent Effect |
|---|---|
| `CN(C)c1ncc(CNS(=O)(=O)c2cc(F)ccc2Cl)n1C` | 13.39 |
| `Cc1ccc(-c2c[nH]c([C@@H]3COCCN3Cc3ncc[nH]3)n2)cc1` | 24.32 |
| `O=C(NC1CCCCC1)N1CCc2onc(COc3cccnc3)c2C1` | 26 |
| `COCC(=O)N1CCCC2(CCN(CCN3CCCC3)CC2)C1` | 18 |
| `CN1CC(C(=O)NC(C)(C)C)CC1=O` (stereo not given) | 3.81 |
| `CC(C)(C)CN[C@@H]1CO[C@H](CNC(=O)Nc2ccccc2)[C@H]1O` | 22.97 |
| `Cc1nn(C)c(N(C)C)c1CNCCOc1ccc2c(c1)OCO2` | 3.67 |

Measurements from “University of Dundee, Small-Polar-MMV Screening Library” (2021), ChEMBL document CHEMBL3988442.